These are yes or no findings as the source states them, for the method shown. Some binding calls cover weakened binding; strength is not graded here. One block for each binder: values may come before it.
Target: Homo sapiens NOP56 (amino acids 1 to 411), histidine-tagged (Homo sapiens) (UniProt O00567)
Assay: co-purification after co-expression (Ni-NTA affinity, gel filtration); human NOP56 1-411 (single histidine tag), NOP58 1-401, fibrillarin 83-316, 15.5 K and tRNA-U14 RNA co-expressed in E. coli Nico21 (DE3); lysis buffer 25 mM Na2HPO4 pH 7.6, 500 mM NaCl, 10% glycerol, 0.5% Triton X-100; Ni-NTA (50 mM imidazole wash, 250 mM elution), then Superdex 200; proteins identified by SDS-PAGE (Coomassie) and mass spectroscopy

Sequences of proteins named here, by UniProt entry; tags and fusion partners are left off. Residues count along the entry.
UniProt O00567, residues 1-411: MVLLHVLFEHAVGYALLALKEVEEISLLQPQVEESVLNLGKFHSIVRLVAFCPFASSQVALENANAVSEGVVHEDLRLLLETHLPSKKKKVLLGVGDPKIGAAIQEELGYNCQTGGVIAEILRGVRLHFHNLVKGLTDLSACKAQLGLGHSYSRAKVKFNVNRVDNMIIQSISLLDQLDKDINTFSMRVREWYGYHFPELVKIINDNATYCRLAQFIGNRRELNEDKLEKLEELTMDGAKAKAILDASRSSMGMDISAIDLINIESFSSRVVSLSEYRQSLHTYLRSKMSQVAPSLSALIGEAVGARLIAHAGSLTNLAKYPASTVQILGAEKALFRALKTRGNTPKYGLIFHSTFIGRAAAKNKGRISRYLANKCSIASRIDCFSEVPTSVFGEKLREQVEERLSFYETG

binding: binds
B1: Homo sapiens fibrillarin (amino acids 83 to 316), without the GAR domain (domain or fragment, UniProt P22087 83-316)
chain: GKNVMVEPHRHEGVFICRGKEDALVTKNLVPGESVYGEKRVSISEGDDKIEYRAWNPFRSKLAAAILGGVDQIHIKPGAKVLYLGAASGTTVSHVSDIVGPDGLVYAVEFSHRSGRDLINLAKKRTNIIPVIEDARHPHKYRMLIAMVDVIFADVAQPDQTRIVALNAHTFLRNGGHFVISIKANCIDSTASAEAVFASEVKKMQQENMKPQEQLTLEPYERDHAVVVGVYRPP

binding: binds
B2: Homo sapiens NOP58 (amino acids 1 to 401) (domain or fragment, UniProt Q9Y2X3 1-401)
chain: MLVLFETSVGYAIFKVLNEKKLQEVDSLWKEFETPEKANKIVKLKHFEKFQDTAEALAAFTALMEGKINKQLKKVLKKIVKEAHEPLAVADAKLGGVIKEKLNLSCIHSPVVNELMRGIRSQMDGLIPGVEPREMAAMCLGLAHSLSRYRLKFSADKVDTMIVQAISLLDDLDKELNNYIMRCREWYGWHFPELGKIISDNLTYCKCLQKVGDRKNYASAKLSELLPEEVEAEVKAAAEISMGTEVSEEDICNILHLCTQVIEISEYRTQLYEYLQNRMMAIAPNVTVMVGELVGARLIAHAGSLLNLAKHAASTVQILGAEKALFRALKSRRDTPKYGLIYHASLVGQTSPKHKGKISRMLAAKTVLAIRYDAFGEDSSSAMGVENRAKLEARLRTLEDR

binding: binds weakly
B3: Homo sapiens 15.5 K (protein, UniProt P55769 1-128)
chain: MTEADVNPKAYPLADAHLTKKLLDLVQQSCNYKQLRKGANEATKTLNRGISEFIVMAADAEPLEIILHLPLLCEDKNVPYVFVRSKQALGRACGVSRPVIACSVTIKEGSQLKQQIQSIQQSIERLLV
